These are yes or no findings as the source states them, for the method shown. Binding calls can cover weak binding; strength is not graded here.
Tests used:
[1] = target: cynomolgus Gal10-His (WGS isoform) (cynomolgus); assay: SPR Biacore 3000, two concentrations on captured cynomolgus Gal10-His
[2] = target: cynomolgus Gal10-His (WGS isoform) (cynomolgus); assay: SPR Biacore 3000 on captured cynomolgus Gal10-His
[3] = target: cynomolgus Gal10-His (WGS isoform) (cynomolgus); assay: SPR, summary of Example 4
[4] = target: cynomolgus Gal10-His (WGS isoform) (cynomolgus); assay: Cyno cross-reactivity, overview table
[5] = target: cynomolgus Gal10-His (WGS isoform) (cynomolgus); assay: conclusion from the examples

Row | Binder | binding [1] | binding [2] | binding [3] | binding [4] | binding [5]
1 | g7B07 (human Fab) (Fab, V domains shown) VH: EVQLLESGGGLVQPGGSLRLSCAASGFTFRSYDMSWVRQAPGKGLEWVSAIKNGGGITYYADSVKGRFTISRDNSKNTLYLQMNSLRAEDTAVYYCATTHGIGTLGFGSWGQGTLVTVSS VL: SYELTQPLSVSVALGQTARITCDGNNIGSKSAQWYQQKPGQAPVLVIYADEYRPEGIPERFSGSNSGNTATLTISRAQAGDEADYYCQVWDGSAAVFGGGTQLTVL | binds | – | – | – | –
2 | g7B07_N53A (human Fab) (Fab, V domains shown) VH: EVQLLESGGGLVQPGGSLRLSCAASGFTFRSYDMSWVRQAPGKGLEWVSAIKAGGGITYYADSVKGRFTISRDNSKNTLYLQMNSLRAEDTAVYYCATTHGIGTLGFGSWGQGTLVTVSS VL: SYELTQPLSVSVALGQTARITCDGNNIGSKSAQWYQQKPGQAPVLVIYADEYRPEGIPERFSGSNSGNTATLTISRAQAGDEADYYCQVWDGSAAVFGGGTQLTVL | binds | – | – | – | –
3 | g20H09 (Fab) (Fab, V domains shown) VH: EVQLLESGGGLVQPGGSLRLSCAASGFTFRSYDMSWVRQAPGKGLEWVSAIKWHRITYYADSVKGRFTISRDNSKNTLYLQMNSLRAEDTAVYYCATTHGIGTLGFGSWGQGTLVTVSS VL: SYELTQPLSVSVALGQTARITCDGNNIGSKSAQWYQQKPGQAPVLVIYADEYRPEGIPERFSGSNSGNTATLTISRAQAGDEADYYCQVWDGSAAVFGGGTQLTVL | – | binds | binds | – | –
4 | g23H09 (Fab) (Fab, V domains shown) VH: EVQLLESGGGLVQPGGSLRLSCAASGFTFRSYDMSWVRQAPGKGLEWVSAIAQFQHWTYYADSVKGRFTISRDNSKNTLYLQMNSLRAEDTAVYYCATTHGIGTLGFGSWGQGTLVTVSS VL: SYELTQPLSVSVALGQTARITCDGNNIGSKSAQWYQQKPGQAPVLVIYADEYRPEGIPERFSGSNSGNTATLTISRAQAGDEADYYCQVWDGSAAVFGGGTQLTVL | – | binds | binds | binds | –
5 | g24F02 (human Fab) (Fab, V domains shown) VH: EVQLLESGGGLVQPGGSLRLSCAASGFTFSSYAMSWVRQAPGKGLEWVSAINNGGGSTSYADSVKGRFTISRDNSKNTLYLQMNSLRAEDTAVYYCAKGLRVGVLGFDYWGQGTLVTVSS VL: SYELTQPLSVSVALGQTARITCDGNNIGSKSAQWYQQKPGQAPVLVIYADEYRPEGIPERFSGSNSGNTATLTISRAQAGDEADYYCQVWDGSAAVFGGGTQLTVL | – | binds | – | – | –
6 | g24F02_N53A (human Fab) (Fab, V domains shown) VH: EVQLLESGGGLVQPGGSLRLSCAASGFTFSSYAMSWVRQAPGKGLEWVSAINAGGGSTSYADSVKGRFTISRDNSKNTLYLQMNSLRAEDTAVYYCAKGLRVGVLGFDYWGQGTLVTVSS VL: SYELTQPLSVSVALGQTARITCDGNNIGSKSAQWYQQKPGQAPVLVIYADEYRPEGIPERFSGSNSGNTATLTISRAQAGDEADYYCQVWDGSAAVFGGGTQLTVL | – | binds | binds | binds | binds
